Test results: publication PMC4277633 (Iranian Journal of Pharmaceutical Research : IJPR, 2015)

system: Human Umbilical Vein Endothelial (HUVEC) cell line

First: Nc1ccccc1 [Compound 1a]
Second: N#Cc1ccccc1N [Compound 1b]
The “SI (IC 50 /MIC)” value of the first is 2.3-fold lower: 4.15 µg/mL for the first, 9.683 µg/mL for the second.

First: c1ccc2[nH]ccc2c1 [Compound 1c, indole]
Second: Nc1ccc2c(c1)Cc1ccccc1-2 [Compound 1e, 2-fluorenamine]
The “SI (IC 50 /MIC)” value of the first is 5.1-fold lower: 12.2272 µg/mL for the first, 61.99 µg/mL for the second.

`Nc1cccc2c1C(=O)c1ccccc1C2=O` [Compound 1f, 1-aminoanthraquinone] and `O=C1c2ccccc2C(=O)N1CCO` [Compound 1h, N-(2-Hydroxyethyl)-phthalimide] are within 1.5-fold of each other in “SI (IC 50 /MIC)” value: 1.814 µg/mL for the first, 1.683 µg/mL for the second.

`NCCCn1ccnc1` [Compound 1i] and `O=C(O)/C=C/c1cnc[nH]1` [Compound 1j] are within 1.5-fold of each other in “SI (IC 50 /MIC)” value: 3.524 µg/mL for the first, 2.374 µg/mL for the second.

First: Cc1cc(C(=O)O)no1 [Compound 2a, 5-methylisoxazole-3-carboxylic acid]
Second: O=C(O)c1cc2ccccc2oc1=O [Compound 2b, coumarin-3-carboxylic acid]
The “SI (IC 50 /MIC)” value of the first is 3.4-fold lower: 8.743 µg/mL for the first, 29.58 µg/mL for the second.

In the case of `Nc1ccc(Nc2ccccc2)c2c1C(=O)c1ccccc1C2=O` [Compound 1g, 1-amino-4-anilino-9,10-anthraquinone], the “SI (IC 50 /MIC)” value is reported as greater than 88.33 µg/mL.
